Where a name gives a salt, the structure may show the parent alone. This is one part of the list. Single values are uncertain here, since repeats match poorly.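 Human kidney-derived cells stably carry a construct in which eight TEAD-binding elements drive luciferase, measured by luminescence in a drug-repurposing library screen. A hit is any compound whose signal exceeds the plate mean by more than five robust Z scores.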
Tested on: HEK293A TEAD-LUC reporter
Assay: TEAD-luciferase reporter activity (YAP activation), robust Z score vs plate; higher = stronger YAP/TEAD activation
Details: 24 h

Compound	TEAD-luciferase reporter activity (compound concentration: 200 nM)	TEAD-luciferase reporter activity (compound concentration: 2 uM)	TEAD-luciferase reporter activity (compound concentration: 10 uM)
COc1ccc([C@H](CC(=O)O)N2CCN(CCCc3ccc4c(n3)NCCC4)C2=O)cn1	inactive: -1.01	inactive: -1.67	inactive: -1.69
CC(C)N(CC(=O)N1CCOCC1)Cc1c(Cl)cccc1NC(=O)c1ccccc1	inactive: -0.525	inactive: -0.497	inactive: 2.22
Nc1nc(/C(=N/OCc2cnc[nH]2)C(=O)N[C@@H]2C(=O)N3C(C(=O)O)=C(C[n+]4ccccc4)CS[C@H]23)cs1 [Pharmaprojects No. 2479]	inactive: 0.256	inactive: -0.606	inactive: -0.954
CC(C)(NCCCn1ccnc1)c1ccc(Cl)cc1	inactive: -1.82	inactive: -0.836	inactive: -0.266
Cn1cnc(-c2cc3nccc(Oc4ccc(NC(=S)NC(=O)Cc5ccccc5)cc4F)c3s2)c1	inactive: 2.24	inactive: -2.09	inactive: -0.4
CN1CCN(C[C@@H]2C(=O)Nc3ccccc3S[C@@H]2c2ccccc2)CC1	inactive: 1.19	inactive: 0.696	inactive: 1.5
CO[C@@H]1C[C@H](C(=O)Nc2ccc(-n3ccccc3=O)cc2F)N(C(=O)Nc2ccc(Cl)cc2)C1	inactive: -1.27	inactive: -0.191	inactive: 0.192
C#C[C@]1(O)CC[C@H]2[C@@H]3CCC4=CCCC[C@@H]4[C@H]3C(=C)C[C@@]21CC [Desogestrel]	inactive: 0.0709	inactive: -0.851	inactive: -0.205
CC1=C(c2ccc(O)cc2)C(c2ccc(OCCN3CCCCC3)cc2)Oc2cc(O)ccc21 (configuration not stated)	inactive: 0.53	inactive: -0.494	inactive: -1.23
CC(C)CN(C(=O)c1cccc(Cl)c1Cl)[C@H]1CCNC1	inactive: -1.5	inactive: -0.228	inactive: 1.06
CCC(C(=O)O)c1ccc(-c2ccccc2)cc1 (configuration not stated)	inactive: -0.24	inactive: -0.39	inactive: 0.463
O=c1c(N2CCCC2)c(O)c2cccnc2n1-c1ccccc1	inactive: 1.96	inactive: -1.18	inactive: 3.02
Cc1cc(NS(=O)(=O)c2ccc(N)cc2)no1	inactive: -0.487	inactive: 0.0987	inactive: -0.739
CCCn1c(=O)n(C2CC2)c(=O)c2[nH]c(-c3ccc(N(CC)C(=O)c4cccnc4)nc3)nc21	inactive: -0.423	inactive: 2.17	inactive: -0.613
OC(CCl)CN1CC[N+]2(CC1)CC[N+]1(CCN(CC(O)CCl)CC1)CC2 (configuration not stated)	inactive: -0.99	inactive: -1.34	inactive: -0.319
CC(C)CNC1CCS(=O)(=O)c2sc(S(N)(=O)=O)cc21 (configuration not stated) [Sezolamide hydrochloride]	inactive: -0.227	inactive: 0.675	inactive: 2.04
CC(C(=O)OCCCCO[N+](=O)[O-])c1cccc(C(=O)c2ccccc2)c1 (configuration not stated)	inactive: -2.17	inactive: 1.99	inactive: 0.543

Compound	TEAD-luciferase reporter activity (compound concentration: 200 nM)	TEAD-luciferase reporter activity (compound concentration: 2 uM)	TEAD-luciferase reporter activity (compound concentration: 10 uM)
COC1=C(c2ccccc2)C(CC(=O)O)OC1=O (configuration not stated)	inactive: -1.48	inactive: 0.332	inactive: 1.46
CC(C)=CCC/C(C)=C/CC/C(C)=C/CC/C(C)=C/CC/C(C)=C/CC/C(C)=C/CC/C(C)=C/CC1=C(C)C(=O)c2ccccc2C1=O [Menaqui-7]	inactive: 0.587	–	–
CC(C)=CCC/C(C)=C/CC/C(C)=C/CC/C(C)=C/CC/C(C)=C/CC/C(C)=C/CC/C(C)=C/CC1=C(C)C(=O)c2ccccc2C1=O [Menaqui  -7]	–	–	inactive: 2.51
CC(C)=CCC/C(C)=C/CC/C(C)=C/CC/C(C)=C/CC/C(C)=C/CC/C(C)=C/CC/C(C)=C/CC1=C(C)C(=O)c2ccccc2C1=O [Menaqui   -7]	–	inactive: -0.494	–
COc1cc2ncnc(Nc3cccc(Br)c3)c2cc1OC	inactive: -0.573	inactive: -0.919	inactive: -0.411
CC(C)(COC(=O)c1cccnc1)[C@@H](OC(=O)c1cccnc1)C(=O)NCCC(=O)NCCSSCCNC(=O)CCNC(=O)[C@H](OC(=O)c1cccnc1)C(C)(C)COC(=O)c1cccnc1 [Derpanicate]	inactive: -1.66	inactive: -0.434	inactive: -0.614
COC(=O)N[C@H](C(=O)N1CCC[C@H]1c1nc(-c2ccc3cc(-c4ccc5[nH]c([C@@H]6CCCN6C(=O)[C@@H](NC(=O)OC)C(C)C)nc5c4)ccc3c2)c[nH]1)C(C)C [Ravidasvir]	inactive: 1.21	inactive: 0.814	inactive: 2.25
CCCCc1nc2cc(-c3cccc[n+]3[O-])c(C)nc2n1Cc1ccc(-c2ccccc2-c2nnn[nH]2)cc1	inactive: 2.07	inactive: -1.52	inactive: 1.83
CN(C)CC(O)Cc1cccc(Cl)c1 (configuration not stated)	inactive: -0.55	inactive: -0.0968	inactive: -1.39
CC(CC(=O)O)NC(=O)CN1CCCCCC1=O (configuration not stated)	inactive: -1.22	inactive: 0.503	inactive: -0.501
CN1c2ccccc2Sc2ccc(CC(=O)O)cc21	inactive: 0.25	inactive: -0.463	inactive: -0.601
CCOC(=O)COc1cccc([C@@H]2CCC[C@@H](NCC(O)c3cccc(Cl)c3)C2)c1 (some centres not stated)	inactive: 0.703	inactive: -0.269	inactive: -0.612
CC(=O)c1ccc([C@H]2C[C@@]3(C)[C@@H](CC[C@@]3(O)C(F)(F)C(F)(F)F)[C@@H]3CCC4=CC(=O)CCC4=C32)cc1 [Lonaprisan]	inactive: 0.616	inactive: 2.21	inactive: 2.7
Nc1c2c(nc3c1CCC3)CCCC2 [ipidacrine hydrochloride]	–	inactive: -1.42	–
Nc1c2c(nc3c1CCC3)CCCC2	inactive: -2.24	–	inactive: 0.0489
O=C1Nc2ccccc2CC12CCCN(CC1CCCCC1)C2 (configuration not stated)	inactive: -0.654	–	inactive: 1.76
CC(=O)Oc1cccc2sc(-c3ccc(C)cc3)nc12	inactive: -0.899	inactive: 0.735	inactive: -0.348

Single entries from the results shown.
O=C1Nc2ccccc2CC12CCCN(CC1CCCCC1)C2 (configuration not stated) | TEAD-luciferase reporter activity (compound concentration: 200 nM): inactive: -0.654
Nc1c2c(nc3c1CCC3)CCCC2 [ipidacrine hydrochloride] | TEAD-luciferase reporter activity (compound concentration: 2 uM): inactive: -1.42
